# Taken from: PubChem BioAssay AID1259283 (Sanger Institute, 2017)
# Screen: 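Kinome-wide siRNA search for kinases acting with BYL719, cetuximab or trametinib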 (primary screen)
# Cells: HT115 colorectal cancer cells
# Reagents: siRNA pool against human genes
# Conditions: anchor drug given one day after siRNA: BYL719 at 1 µM, cetuximab at 5 µg/ml, trametinib at 10 nM, or DMSO vehicle alone
# Read-out: 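Per-drug synergy scores plus replicate-mean viability relative to non-targeting pool #2 wells, also expressed as a robust z-score based on control wells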
# Scale: robust z-score, knock-down alone: higher = more viable cells after knock-down; viability, DMSO vs non-targeting control: higher = more viable cells; synergy score with BYL719 and synergy score with cetuximab and synergy score with trametinib: higher = stronger synergy with drug (synthetic lethal)
# Active means: 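a gene counts as essential when its robust z-score with knock-down alone is below -3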
# Meaning of the calls: active = essential (z below -3, no drug); inactive = no change without drug
# The deposit covers 794 reagents; shown is a random part of them. 14 of all reagents (1.8%) count as active. 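Calls reflect only viability loss without drug; drug synergy does not enter the call.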 Viability is capped at 1. Not given: the amount of reagent, the time to read-out.
Gene,"robust z-score, knock-down alone","viability, DMSO vs non-targeting control (fraction of control)",synergy score with BYL719,synergy score with cetuximab,synergy score with trametinib,outcome
IGF1R,0.689,0.991,0.0973,0.147,-0.107,inactive
DGKD,-0.672,0.865,0.102,0.0806,0.0495,inactive
PAK4,0.243,0.95,0.0989,0.0891,0.166,inactive
KALRN,-0.545,0.877,-0.0135,0.00544,0.163,inactive
STK38,-1.17,0.819,-0.00852,0.0315,0.176,inactive
CHEK1,0.375,0.962,0.181,0.0618,0.0302,inactive
CLK1,0.281,0.953,-0.0683,-0.0218,-0.0794,inactive
CDK4,-1.05,0.83,0.00854,0.222,0.155,inactive
MYH10,-0.951,0.839,-0.117,-0.081,-0.0766,inactive
CDK5,-0.0632,0.921,-0.0698,0.0151,-0.0755,inactive
CDC42BPA,-1.96,0.746,-0.0432,-0.00345,0.207,inactive
MUSK,-2.74,0.674,-0.0226,0.107,0.19,inactive
NR4A2,-1.01,0.834,0.0968,0.0904,0.275,inactive
EGFR,0.601,0.983,0.165,0.0903,0.103,inactive
ROCK1,0.428,0.967,-0.055,-0.0408,-0.158,inactive
GRK4,0.186,0.944,0.0831,0.0586,-0.0712,inactive
ATP23,0.789,1,0.032,0.0181,0.122,inactive
ERBB3,0.789,1,0.0623,0.141,0.186,inactive
PTK7,-1.63,0.776,0.0456,0.0649,-0.00788,inactive
HK3,0.789,1,0.0231,0.0262,0.059,inactive
KIT,0.789,1,0.0178,-0.0435,0.0509,inactive
SRGAP3,0.789,1,-0.0224,0.0534,0.0124,inactive
SIK2,-1.05,0.83,-0.0344,-0.00885,-0.123,inactive
UHMK1,0.654,0.988,0.0303,0.113,0.0859,inactive
NEK1,-0.652,0.867,-0.0592,-0.0118,0.0544,inactive
PRKAR1B,-1.58,0.781,-0.013,0.0345,-0.027,inactive
TK2,0.789,1,-0.0175,-0.0435,0.153,inactive
CLK2,-0.0629,0.921,0.00258,-0.00938,-0.0208,inactive
HK1,0.789,1,-0.0224,0.0119,-0.013,inactive
RIPK1,0.212,0.947,-0.0746,-0.0462,-0.00964,inactive
STK16,0.744,0.996,0.155,0.231,0.223,inactive
PGK2,0.427,0.967,-0.0237,-0.0269,0.14,inactive
FBXW7,0.789,1,-0.0224,-0.00926,0.34,inactive
DYRK1A,0.5,0.973,-0.0485,-0.0301,0.0538,inactive
CSNK1A1,0.599,0.982,0.0676,0.0759,-0.0106,inactive
SGK2,0.789,1,0.144,0.124,0.143,inactive
BRSK2,0.789,1,-0.0224,-0.0435,-0.122,inactive
CMPK1,0.789,1,0.0968,0.0737,0.0166,inactive
CALM3,0.789,1,0.0798,0.17,-0.0792,inactive
BRWD1,-0.677,0.864,0.145,0.096,0.145,inactive
WIPF1,-2.49,0.697,0.00999,0.168,0.255,inactive
JAK2,-1.39,0.798,-0.134,0.00797,-0.0349,inactive
KMT2B,0.789,1,-0.0224,0.14,0.0721,inactive
EFNA3,0.0589,0.933,0.0926,-0.0393,0.0122,inactive
SGK3,0.789,1,-0.0224,-0.0251,-0.0635,inactive
TRIB1,0.789,1,-0.0169,0.0108,0.0876,inactive
EPHB3,-2.07,0.736,-0.0206,0.119,0.205,inactive
FN3K,0.147,0.941,0.0887,0.1,0.187,inactive
PRKCI,-0.839,0.849,-0.0777,0.0394,0.0213,inactive
JAK1,0.789,1,-0.0224,0.0215,-0.0773,inactive
